According to the supplement of paper PMC12595434, “Development of retinoid nuclear receptor pathway antagonists through targeting aldehyde dehydrogenase 1A3” (iScience, 2025):
Some of the results follow. Single values of this set are uncertain.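 Tm was set to 64 °C where no melting was found, and many curves are irregular.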

Protein sequences, listed by entry. Tags and fused reporters are not part of them. Lines headed by an entry give the natural chain unless they say otherwise; changes in a name come on top.
UniProt Q8N8R5: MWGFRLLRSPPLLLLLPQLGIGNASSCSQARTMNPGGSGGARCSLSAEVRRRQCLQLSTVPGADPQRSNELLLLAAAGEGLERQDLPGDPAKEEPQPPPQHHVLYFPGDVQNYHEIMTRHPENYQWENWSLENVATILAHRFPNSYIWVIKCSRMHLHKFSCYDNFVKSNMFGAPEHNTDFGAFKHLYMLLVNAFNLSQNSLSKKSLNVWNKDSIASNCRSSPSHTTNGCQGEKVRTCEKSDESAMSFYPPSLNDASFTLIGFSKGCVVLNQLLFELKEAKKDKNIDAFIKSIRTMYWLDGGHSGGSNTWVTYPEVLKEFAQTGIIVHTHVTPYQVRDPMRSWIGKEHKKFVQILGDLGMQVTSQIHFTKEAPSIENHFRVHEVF
UniProt Q8NCG7: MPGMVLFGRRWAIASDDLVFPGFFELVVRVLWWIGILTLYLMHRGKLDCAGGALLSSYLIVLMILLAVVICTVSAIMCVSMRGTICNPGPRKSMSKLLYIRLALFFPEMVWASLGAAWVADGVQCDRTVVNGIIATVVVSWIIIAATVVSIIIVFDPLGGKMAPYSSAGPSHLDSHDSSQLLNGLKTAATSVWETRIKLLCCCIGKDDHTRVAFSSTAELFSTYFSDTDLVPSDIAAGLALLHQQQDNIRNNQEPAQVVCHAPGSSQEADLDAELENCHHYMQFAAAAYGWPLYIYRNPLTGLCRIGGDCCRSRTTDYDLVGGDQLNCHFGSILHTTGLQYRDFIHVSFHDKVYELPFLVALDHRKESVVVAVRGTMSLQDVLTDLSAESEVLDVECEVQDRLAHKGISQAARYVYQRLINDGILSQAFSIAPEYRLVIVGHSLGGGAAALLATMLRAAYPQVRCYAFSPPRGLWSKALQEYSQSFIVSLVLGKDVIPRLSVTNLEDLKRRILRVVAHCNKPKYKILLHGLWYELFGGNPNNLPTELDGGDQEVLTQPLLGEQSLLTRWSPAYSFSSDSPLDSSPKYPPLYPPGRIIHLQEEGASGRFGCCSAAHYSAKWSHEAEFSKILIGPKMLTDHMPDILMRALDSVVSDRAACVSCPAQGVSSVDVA
UniProt Q8TC07: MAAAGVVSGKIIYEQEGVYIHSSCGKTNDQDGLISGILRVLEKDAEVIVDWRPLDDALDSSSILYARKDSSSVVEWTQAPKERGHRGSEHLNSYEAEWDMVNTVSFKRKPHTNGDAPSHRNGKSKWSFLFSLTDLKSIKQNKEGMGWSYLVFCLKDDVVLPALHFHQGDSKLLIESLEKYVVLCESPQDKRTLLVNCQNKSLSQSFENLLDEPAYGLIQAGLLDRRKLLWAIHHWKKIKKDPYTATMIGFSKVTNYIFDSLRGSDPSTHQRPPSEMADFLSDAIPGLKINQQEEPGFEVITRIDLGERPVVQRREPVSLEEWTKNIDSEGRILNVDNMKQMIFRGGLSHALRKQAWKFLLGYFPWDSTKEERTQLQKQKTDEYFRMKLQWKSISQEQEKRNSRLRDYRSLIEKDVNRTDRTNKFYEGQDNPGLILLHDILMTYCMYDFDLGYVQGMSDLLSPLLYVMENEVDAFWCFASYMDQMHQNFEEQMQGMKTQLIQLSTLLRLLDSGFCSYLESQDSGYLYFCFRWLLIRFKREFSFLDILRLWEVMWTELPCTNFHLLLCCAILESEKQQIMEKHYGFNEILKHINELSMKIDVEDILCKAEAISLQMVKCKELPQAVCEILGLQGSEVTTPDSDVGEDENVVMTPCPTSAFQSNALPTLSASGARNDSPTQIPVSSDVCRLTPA
UniProt Q8WUX2: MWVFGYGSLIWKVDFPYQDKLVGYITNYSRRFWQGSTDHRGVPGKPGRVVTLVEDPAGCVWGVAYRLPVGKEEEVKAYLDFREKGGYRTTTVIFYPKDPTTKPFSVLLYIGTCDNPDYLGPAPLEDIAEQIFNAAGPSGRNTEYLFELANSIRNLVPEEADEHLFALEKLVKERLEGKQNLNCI
UniProt Q8TDR2: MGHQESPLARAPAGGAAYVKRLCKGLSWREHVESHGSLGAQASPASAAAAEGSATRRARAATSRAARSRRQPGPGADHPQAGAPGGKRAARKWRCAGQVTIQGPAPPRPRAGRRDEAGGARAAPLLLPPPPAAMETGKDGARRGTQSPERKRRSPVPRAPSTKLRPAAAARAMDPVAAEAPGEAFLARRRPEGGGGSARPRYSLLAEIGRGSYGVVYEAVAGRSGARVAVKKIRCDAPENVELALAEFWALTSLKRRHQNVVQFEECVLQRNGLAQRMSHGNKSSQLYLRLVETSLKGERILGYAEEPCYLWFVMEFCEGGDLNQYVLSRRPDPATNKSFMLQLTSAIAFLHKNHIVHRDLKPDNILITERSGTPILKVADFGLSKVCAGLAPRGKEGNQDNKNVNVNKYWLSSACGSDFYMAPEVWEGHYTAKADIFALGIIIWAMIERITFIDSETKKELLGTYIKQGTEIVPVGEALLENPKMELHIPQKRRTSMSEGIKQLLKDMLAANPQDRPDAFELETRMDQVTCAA
UniProt Q8NEC7: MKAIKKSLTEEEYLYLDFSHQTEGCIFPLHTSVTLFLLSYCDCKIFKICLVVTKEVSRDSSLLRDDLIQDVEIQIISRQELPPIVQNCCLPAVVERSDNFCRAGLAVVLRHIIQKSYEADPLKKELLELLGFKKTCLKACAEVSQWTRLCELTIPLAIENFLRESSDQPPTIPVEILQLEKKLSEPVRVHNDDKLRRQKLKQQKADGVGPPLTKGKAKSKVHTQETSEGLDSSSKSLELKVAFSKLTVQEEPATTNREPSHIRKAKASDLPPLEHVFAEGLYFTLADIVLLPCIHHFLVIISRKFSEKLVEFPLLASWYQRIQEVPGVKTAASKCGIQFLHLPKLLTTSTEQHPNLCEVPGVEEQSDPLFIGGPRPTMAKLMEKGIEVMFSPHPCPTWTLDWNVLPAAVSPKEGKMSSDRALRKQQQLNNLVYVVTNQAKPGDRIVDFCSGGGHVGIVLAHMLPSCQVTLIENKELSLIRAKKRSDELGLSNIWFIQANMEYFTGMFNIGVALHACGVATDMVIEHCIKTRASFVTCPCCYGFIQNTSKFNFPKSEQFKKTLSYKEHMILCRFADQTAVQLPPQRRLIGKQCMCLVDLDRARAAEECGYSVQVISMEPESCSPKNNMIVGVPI
UniProt Q8NEY1: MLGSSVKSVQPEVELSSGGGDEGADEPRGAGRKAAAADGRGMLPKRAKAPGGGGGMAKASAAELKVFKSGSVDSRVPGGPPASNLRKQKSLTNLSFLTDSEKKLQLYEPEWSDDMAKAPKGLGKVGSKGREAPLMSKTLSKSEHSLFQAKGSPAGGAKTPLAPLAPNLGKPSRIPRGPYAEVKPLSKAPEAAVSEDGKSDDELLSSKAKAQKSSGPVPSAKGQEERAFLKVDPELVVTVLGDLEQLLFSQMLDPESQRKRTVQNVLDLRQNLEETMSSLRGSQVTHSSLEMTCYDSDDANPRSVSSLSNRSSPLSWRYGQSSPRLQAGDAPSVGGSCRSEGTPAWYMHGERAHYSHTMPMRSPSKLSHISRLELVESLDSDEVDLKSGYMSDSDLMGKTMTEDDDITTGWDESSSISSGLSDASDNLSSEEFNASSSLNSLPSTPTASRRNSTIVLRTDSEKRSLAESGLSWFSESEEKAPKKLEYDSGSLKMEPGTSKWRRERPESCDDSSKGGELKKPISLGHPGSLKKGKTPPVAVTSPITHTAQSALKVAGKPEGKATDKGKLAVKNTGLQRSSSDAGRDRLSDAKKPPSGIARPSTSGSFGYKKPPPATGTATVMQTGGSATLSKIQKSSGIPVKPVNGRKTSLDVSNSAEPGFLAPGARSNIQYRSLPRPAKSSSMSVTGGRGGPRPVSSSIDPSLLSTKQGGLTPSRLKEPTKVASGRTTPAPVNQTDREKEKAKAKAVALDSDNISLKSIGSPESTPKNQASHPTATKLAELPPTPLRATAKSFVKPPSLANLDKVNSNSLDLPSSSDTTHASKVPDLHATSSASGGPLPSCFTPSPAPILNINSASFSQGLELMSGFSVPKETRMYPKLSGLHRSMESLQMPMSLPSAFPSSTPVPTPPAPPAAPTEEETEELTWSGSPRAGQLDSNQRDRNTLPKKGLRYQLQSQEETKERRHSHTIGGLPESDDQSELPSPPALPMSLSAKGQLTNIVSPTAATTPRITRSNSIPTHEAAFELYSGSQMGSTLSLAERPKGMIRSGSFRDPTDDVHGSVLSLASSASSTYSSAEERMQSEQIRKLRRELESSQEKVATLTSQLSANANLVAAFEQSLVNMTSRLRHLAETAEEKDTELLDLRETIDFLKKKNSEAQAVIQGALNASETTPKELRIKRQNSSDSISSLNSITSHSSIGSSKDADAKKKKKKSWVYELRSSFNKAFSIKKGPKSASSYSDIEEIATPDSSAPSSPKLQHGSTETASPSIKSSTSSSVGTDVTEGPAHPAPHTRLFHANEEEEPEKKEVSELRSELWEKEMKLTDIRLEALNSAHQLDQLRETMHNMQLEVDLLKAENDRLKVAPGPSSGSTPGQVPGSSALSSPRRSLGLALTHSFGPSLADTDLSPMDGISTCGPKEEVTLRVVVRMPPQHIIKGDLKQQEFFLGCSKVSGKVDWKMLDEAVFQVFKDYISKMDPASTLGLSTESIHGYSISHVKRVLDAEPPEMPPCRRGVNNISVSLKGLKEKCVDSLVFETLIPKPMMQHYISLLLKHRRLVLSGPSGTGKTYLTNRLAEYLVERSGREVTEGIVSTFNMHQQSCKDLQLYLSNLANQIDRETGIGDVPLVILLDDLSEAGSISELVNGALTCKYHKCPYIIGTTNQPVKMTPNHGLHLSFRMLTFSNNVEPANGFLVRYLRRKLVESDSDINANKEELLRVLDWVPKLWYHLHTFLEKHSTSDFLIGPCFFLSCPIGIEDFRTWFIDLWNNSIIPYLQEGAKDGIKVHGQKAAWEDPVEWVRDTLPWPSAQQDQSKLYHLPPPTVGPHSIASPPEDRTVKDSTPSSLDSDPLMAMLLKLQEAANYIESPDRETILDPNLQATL
UniProt Q8NDZ2: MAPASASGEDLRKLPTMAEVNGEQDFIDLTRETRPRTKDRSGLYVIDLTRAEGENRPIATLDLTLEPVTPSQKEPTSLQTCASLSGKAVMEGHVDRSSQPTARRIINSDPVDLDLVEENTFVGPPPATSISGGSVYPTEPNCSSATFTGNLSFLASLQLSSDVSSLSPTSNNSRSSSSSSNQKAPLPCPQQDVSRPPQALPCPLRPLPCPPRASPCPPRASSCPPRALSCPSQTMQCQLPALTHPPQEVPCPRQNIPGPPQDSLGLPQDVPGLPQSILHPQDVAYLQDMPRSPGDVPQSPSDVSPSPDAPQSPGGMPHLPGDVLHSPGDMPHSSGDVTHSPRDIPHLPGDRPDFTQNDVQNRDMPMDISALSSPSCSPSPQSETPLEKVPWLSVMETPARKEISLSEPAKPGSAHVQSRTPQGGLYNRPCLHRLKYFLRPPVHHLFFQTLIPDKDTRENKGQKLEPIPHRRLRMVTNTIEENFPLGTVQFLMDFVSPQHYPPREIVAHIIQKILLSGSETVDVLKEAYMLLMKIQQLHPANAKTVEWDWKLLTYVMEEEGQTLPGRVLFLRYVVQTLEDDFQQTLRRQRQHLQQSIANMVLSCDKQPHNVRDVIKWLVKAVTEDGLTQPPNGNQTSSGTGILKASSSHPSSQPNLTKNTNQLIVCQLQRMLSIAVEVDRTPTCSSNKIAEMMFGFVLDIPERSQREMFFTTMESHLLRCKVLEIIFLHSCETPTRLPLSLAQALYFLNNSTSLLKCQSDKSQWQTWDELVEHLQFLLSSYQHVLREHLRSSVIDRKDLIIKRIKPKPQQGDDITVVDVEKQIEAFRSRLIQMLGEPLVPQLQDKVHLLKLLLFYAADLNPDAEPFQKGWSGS
UniProt Q8N8S7: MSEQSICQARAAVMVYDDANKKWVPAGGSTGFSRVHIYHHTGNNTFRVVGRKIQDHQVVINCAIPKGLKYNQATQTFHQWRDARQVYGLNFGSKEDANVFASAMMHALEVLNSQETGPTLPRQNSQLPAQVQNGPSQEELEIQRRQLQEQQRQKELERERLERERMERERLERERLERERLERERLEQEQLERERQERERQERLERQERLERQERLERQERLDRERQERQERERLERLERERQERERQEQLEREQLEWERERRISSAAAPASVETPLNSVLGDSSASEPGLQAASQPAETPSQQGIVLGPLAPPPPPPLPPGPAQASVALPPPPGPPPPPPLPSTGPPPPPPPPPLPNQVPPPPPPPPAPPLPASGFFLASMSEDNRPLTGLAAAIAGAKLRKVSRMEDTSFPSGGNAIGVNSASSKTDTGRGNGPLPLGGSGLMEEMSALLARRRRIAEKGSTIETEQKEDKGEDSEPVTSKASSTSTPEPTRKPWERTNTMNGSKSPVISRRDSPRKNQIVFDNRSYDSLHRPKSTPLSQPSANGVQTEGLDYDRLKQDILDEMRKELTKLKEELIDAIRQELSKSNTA

Compound: CCc1cnccc1C(=O)Nc1cc2c(cc1F)NC(=O)CC2
Assay: melting temperature shift (DMSO Tm minus MBE1-treated Tm) in cellular thermal proteome profiling; higher = less thermal stabilization by MBE1 (negative = stabilized by MBE1)
Conditions: A375

Target	melting temperature shift (MBE1 concentration: 100 nM) [°C]	melting temperature shift (MBE1 concentration: 1 uM) [°C]
CHST14 (UniProt Q8NCH0)	-0.0427	0.507
UniProt Q8N8R5	-1.32	-0.818
UniProt Q8NHX9	-1.67	3.53
ZC3H15 (UniProt Q8WU90)	-1.56	0.268
PDDC1 (UniProt Q8NB37)	-0.861	-3.39
PLBD2 (UniProt Q8NHP8)	-1.81	-2.72
SHCBP1 (UniProt Q8NEM2)	0.44	0.22
NUP37 (UniProt Q8NFH4)	-0.902	0.134
BRIX1 (UniProt Q8TDN6)	-0.503	0.651
NPEPL1 (UniProt Q8NDH3)	-3.29	-0.704
DAGLB (UniProt Q8NCG7)	-1.35	1.22
UXS1 (UniProt Q8NBZ7)	-3.92	-0.201
ATP11C (UniProt Q8NB49)	-0.464	0.58
RB1CC1 (UniProt Q8TDY2)	0.586	-0.983
UniProt Q8TCE6	1.48	1.61
NEDD1 (UniProt Q8NHV4)	-0.51	1.01
UniProt Q8TDZ2	-0.234	-0.765
NUBPL (UniProt Q8TB37)	-0.738	-0.25
NUP133 (UniProt Q8WUM0)	1.47	0.635
NIPA2 (UniProt Q8N8Q9)	-0.754	0.124
SCFD1 (UniProt Q8WVM8)	0.482	-0.122
PIK3C3 (UniProt Q8NEB9)	0.11	0.798
UBA3 (UniProt Q8TBC4)	0.721	0.159

Target	melting temperature shift (MBE1 concentration: 100 nM) [°C]	melting temperature shift (MBE1 concentration: 1 uM) [°C]
GALNT6 (UniProt Q8NCL4)	-0.456	0.0366
TBC1D15 (UniProt Q8TC07)	0.0977	-0.165
CHAC2 (UniProt Q8WUX2)	-0.637	0.121
TNRC6A (UniProt Q8NDV7)	-1.42	-2.9
STK35 (UniProt Q8TDR2)	-0.568	-0.154
GSTCD (UniProt Q8NEC7)	0.653	1.14
KLHDC4 (UniProt Q8TBB5)	-0.616	-0.88
DNAJB14 (UniProt Q8TBM8)	-0.263	-0.372
UniProt Q8NEJ9	0.115	-0.25
MITD1 (UniProt Q8WV92)	-0.95	-0.971
PPP4R1 (UniProt Q8TF05)	0.556	-0.238
DENND1A (UniProt Q8TEH3)	-0.16	-0.047
ELP5 (UniProt Q8TE02)	-3.88	-4.4
RNASEH2C (UniProt Q8TDP1)	0.147	-0.055
SPATA5 (UniProt Q8NB90)	-0.637	-0.235
HM13 (UniProt Q8TCT9)	-0.888	0.261
FLAD1 (UniProt Q8NFF5)	0.867	0.177
ABCF1 (UniProt Q8NE71)	-0.523	0.14
NAV1 (UniProt Q8NEY1)	-0.574	-0.719
EIF1AD (UniProt Q8N9N8)	0.429	0.311
LEMD2 (UniProt Q8NC56)	-0.654	0.0944
UniProt Q8NDZ2	-0.788	-2.08
PRPF38A (UniProt Q8NAV1)	1.25	-0.0794

Whole records from above.
CHAC2 (UniProt Q8WUX2) as listed: melting temperature shift (MBE1 concentration: 100 nM) [°C]: -0.637; melting temperature shift (MBE1 concentration: 1 uM) [°C]: 0.121
TBC1D15 (UniProt Q8TC07) as listed: melting temperature shift (MBE1 concentration: 100 nM) [°C]: 0.0977; melting temperature shift (MBE1 concentration: 1 uM) [°C]: -0.165
FLAD1 (UniProt Q8NFF5) as listed: melting temperature shift (MBE1 concentration: 100 nM) [°C]: 0.867; melting temperature shift (MBE1 concentration: 1 uM) [°C]: 0.177

More records:

Target	melting temperature shift (MBE1 concentration: 100 nM) [°C]	melting temperature shift (MBE1 concentration: 1 uM) [°C]
UniProt Q8NHM5	-4.08	-3.66
DDX55 (UniProt Q8NHQ9)	-1.25	0.64
FAM98A (UniProt Q8NCA5)	1.11	0.134
MCU (UniProt Q8NE86)	0.624	0.483
UniProt Q8WUA8	-0.66	0.295
STT3B (UniProt Q8TCJ2)	-1.12	-0.215
FAM73A (UniProt Q8NAN2)	0.141	-1.42
TSEN2 (UniProt Q8NCE0)	0.324	-0.989
SMARCC2 (UniProt Q8TAQ2)	-0.205	-0.0769
PYROXD1 (UniProt Q8WU10)	0.924	-0.635
CNNM3 (UniProt Q8NE01)	-0.288	0.464
ATAD1 (UniProt Q8NBU5)	-0.159	-0.342
NUP35 (UniProt Q8NFH5)	-0.195	1.22
PDZD8 (UniProt Q8NEN9)	0.0427	-0.0855
SLC35B2 (UniProt Q8TB61)	-0.527	-1.1
ENAH (UniProt Q8N8S7)	-0.235	0.241
UniProt Q8NA72	-1.99	0.993
PLEKHO2 (UniProt Q8TD55)	1.78	0.653
NUP43 (UniProt Q8NFH3)	-3.09	0.0183
STAG1 (UniProt Q8WVM7)	0.189	0.275
PPIL4 (UniProt Q8WUA2)	-0.299	-0.736
